Binding data for ten molecules are collected here from patent US20060057679A1.

Results are given in words; binding and its absence hold for the method and conditions named. Some results given as binding are weak or reduced against the parent protein; the word gives no strength.

B1: HMGB1 B box (amino acids 91-169 of the HMGB1 sequence) (peptide)
peptide: DPNAPKRPPSAFFLFCSEYRPKIKGEHPGLSIGDVAKKLGEMWNNTAADDKQPYEKKAAKLKEKYEKDIAAYRAKGKPD
B2: HMGB1 A box (amino acids 9-85 of the HMGB1 sequence) (peptide)
peptide: PRGKMSSYAFFVQTCREEHKKKHPDASVNFSEFSKKCSERWKTMSAKEKGKFEDMAKADKARYEREMKTYIPPKGET

In the first experiment the target is RAGE-Ig fusion protein (SEQ ID NO:6) (human). Kind of experiment: competition ELISA, competitor at 10 µM, RAGE-Ig at 25 nM, coated rat HMGB1. A general note: An ELISA detects its analyte on a solid surface through an enzyme-linked reagent.
As for B1, the binding result is “binds”.

With KLKEKYEKDIAAYRAKGKPDAAKKGVVKAEKSKK [HMGB1 peptide 150-183], the binding entry is “binds”.

In the case of B2, the binding result is “binds”.

Regarding KDIAAYRAKGKPDAAKKG [HMGB1 peptide 157-174], the binding result is recorded as “binds”.

Another experiment has the same target. Kind of experiment: competition ELISA: 25 nM RAGE-Ig preincubated with 10 uM competitor, then on coated recombinant rat HMGB1; bound RAGE-Ig detected with anti-human IgG-HRP, OD 650 nm.
For the molecule SIGDVAKKLGEMWNNTAA [huHMGB1-121-138], the binding result is reported as “binds”.

Turning to B1, the binding entry is on record as “binds”.

With LKEKYEKDIAAYRAKGKP [huHMGB1-151-168], the binding result is reported as “binds”.

For HPDASVNFSEFSKKCSER [huHMGB1-31-48], the binding result is “binds”.

Regarding TAADDKQPYEKKAAKLKE [huHMGB1-136-153], the binding result is listed as “binds”.

Regarding KLKEKYEKDIAAYRAKGKPDAAKKGVVKAEKSKK [HMGB1 peptide 150-183], the binding entry was “binds”.

Turning to B2, the binding entry is “binds”.

KDIAAYRAKGKPDAAKKG [HMGB1 peptide 157-174]: the binding result was “binds”.

Consider SERWKTMSAKEKGKFEDM [huHMGB1-46-63], for which the binding entry is “binds”.

Turning to EDMAKADKARYEREMKTY [huHMGB1-61-78], the binding result was “binds”.

Another experiment has the same target. Kind of experiment: competition ELISA, competitor against coated HMGB1 for RAGE-Ig.
Regarding B1, the binding result is “binds”.

Take B2: the binding entry is given as “binds”.
